We go through 2 substances from publication doi:10.1101/2022.06.23.497315.

Protein sequences, listed by entry. Tags and fused reporters are not part of them.
UniProt P97313: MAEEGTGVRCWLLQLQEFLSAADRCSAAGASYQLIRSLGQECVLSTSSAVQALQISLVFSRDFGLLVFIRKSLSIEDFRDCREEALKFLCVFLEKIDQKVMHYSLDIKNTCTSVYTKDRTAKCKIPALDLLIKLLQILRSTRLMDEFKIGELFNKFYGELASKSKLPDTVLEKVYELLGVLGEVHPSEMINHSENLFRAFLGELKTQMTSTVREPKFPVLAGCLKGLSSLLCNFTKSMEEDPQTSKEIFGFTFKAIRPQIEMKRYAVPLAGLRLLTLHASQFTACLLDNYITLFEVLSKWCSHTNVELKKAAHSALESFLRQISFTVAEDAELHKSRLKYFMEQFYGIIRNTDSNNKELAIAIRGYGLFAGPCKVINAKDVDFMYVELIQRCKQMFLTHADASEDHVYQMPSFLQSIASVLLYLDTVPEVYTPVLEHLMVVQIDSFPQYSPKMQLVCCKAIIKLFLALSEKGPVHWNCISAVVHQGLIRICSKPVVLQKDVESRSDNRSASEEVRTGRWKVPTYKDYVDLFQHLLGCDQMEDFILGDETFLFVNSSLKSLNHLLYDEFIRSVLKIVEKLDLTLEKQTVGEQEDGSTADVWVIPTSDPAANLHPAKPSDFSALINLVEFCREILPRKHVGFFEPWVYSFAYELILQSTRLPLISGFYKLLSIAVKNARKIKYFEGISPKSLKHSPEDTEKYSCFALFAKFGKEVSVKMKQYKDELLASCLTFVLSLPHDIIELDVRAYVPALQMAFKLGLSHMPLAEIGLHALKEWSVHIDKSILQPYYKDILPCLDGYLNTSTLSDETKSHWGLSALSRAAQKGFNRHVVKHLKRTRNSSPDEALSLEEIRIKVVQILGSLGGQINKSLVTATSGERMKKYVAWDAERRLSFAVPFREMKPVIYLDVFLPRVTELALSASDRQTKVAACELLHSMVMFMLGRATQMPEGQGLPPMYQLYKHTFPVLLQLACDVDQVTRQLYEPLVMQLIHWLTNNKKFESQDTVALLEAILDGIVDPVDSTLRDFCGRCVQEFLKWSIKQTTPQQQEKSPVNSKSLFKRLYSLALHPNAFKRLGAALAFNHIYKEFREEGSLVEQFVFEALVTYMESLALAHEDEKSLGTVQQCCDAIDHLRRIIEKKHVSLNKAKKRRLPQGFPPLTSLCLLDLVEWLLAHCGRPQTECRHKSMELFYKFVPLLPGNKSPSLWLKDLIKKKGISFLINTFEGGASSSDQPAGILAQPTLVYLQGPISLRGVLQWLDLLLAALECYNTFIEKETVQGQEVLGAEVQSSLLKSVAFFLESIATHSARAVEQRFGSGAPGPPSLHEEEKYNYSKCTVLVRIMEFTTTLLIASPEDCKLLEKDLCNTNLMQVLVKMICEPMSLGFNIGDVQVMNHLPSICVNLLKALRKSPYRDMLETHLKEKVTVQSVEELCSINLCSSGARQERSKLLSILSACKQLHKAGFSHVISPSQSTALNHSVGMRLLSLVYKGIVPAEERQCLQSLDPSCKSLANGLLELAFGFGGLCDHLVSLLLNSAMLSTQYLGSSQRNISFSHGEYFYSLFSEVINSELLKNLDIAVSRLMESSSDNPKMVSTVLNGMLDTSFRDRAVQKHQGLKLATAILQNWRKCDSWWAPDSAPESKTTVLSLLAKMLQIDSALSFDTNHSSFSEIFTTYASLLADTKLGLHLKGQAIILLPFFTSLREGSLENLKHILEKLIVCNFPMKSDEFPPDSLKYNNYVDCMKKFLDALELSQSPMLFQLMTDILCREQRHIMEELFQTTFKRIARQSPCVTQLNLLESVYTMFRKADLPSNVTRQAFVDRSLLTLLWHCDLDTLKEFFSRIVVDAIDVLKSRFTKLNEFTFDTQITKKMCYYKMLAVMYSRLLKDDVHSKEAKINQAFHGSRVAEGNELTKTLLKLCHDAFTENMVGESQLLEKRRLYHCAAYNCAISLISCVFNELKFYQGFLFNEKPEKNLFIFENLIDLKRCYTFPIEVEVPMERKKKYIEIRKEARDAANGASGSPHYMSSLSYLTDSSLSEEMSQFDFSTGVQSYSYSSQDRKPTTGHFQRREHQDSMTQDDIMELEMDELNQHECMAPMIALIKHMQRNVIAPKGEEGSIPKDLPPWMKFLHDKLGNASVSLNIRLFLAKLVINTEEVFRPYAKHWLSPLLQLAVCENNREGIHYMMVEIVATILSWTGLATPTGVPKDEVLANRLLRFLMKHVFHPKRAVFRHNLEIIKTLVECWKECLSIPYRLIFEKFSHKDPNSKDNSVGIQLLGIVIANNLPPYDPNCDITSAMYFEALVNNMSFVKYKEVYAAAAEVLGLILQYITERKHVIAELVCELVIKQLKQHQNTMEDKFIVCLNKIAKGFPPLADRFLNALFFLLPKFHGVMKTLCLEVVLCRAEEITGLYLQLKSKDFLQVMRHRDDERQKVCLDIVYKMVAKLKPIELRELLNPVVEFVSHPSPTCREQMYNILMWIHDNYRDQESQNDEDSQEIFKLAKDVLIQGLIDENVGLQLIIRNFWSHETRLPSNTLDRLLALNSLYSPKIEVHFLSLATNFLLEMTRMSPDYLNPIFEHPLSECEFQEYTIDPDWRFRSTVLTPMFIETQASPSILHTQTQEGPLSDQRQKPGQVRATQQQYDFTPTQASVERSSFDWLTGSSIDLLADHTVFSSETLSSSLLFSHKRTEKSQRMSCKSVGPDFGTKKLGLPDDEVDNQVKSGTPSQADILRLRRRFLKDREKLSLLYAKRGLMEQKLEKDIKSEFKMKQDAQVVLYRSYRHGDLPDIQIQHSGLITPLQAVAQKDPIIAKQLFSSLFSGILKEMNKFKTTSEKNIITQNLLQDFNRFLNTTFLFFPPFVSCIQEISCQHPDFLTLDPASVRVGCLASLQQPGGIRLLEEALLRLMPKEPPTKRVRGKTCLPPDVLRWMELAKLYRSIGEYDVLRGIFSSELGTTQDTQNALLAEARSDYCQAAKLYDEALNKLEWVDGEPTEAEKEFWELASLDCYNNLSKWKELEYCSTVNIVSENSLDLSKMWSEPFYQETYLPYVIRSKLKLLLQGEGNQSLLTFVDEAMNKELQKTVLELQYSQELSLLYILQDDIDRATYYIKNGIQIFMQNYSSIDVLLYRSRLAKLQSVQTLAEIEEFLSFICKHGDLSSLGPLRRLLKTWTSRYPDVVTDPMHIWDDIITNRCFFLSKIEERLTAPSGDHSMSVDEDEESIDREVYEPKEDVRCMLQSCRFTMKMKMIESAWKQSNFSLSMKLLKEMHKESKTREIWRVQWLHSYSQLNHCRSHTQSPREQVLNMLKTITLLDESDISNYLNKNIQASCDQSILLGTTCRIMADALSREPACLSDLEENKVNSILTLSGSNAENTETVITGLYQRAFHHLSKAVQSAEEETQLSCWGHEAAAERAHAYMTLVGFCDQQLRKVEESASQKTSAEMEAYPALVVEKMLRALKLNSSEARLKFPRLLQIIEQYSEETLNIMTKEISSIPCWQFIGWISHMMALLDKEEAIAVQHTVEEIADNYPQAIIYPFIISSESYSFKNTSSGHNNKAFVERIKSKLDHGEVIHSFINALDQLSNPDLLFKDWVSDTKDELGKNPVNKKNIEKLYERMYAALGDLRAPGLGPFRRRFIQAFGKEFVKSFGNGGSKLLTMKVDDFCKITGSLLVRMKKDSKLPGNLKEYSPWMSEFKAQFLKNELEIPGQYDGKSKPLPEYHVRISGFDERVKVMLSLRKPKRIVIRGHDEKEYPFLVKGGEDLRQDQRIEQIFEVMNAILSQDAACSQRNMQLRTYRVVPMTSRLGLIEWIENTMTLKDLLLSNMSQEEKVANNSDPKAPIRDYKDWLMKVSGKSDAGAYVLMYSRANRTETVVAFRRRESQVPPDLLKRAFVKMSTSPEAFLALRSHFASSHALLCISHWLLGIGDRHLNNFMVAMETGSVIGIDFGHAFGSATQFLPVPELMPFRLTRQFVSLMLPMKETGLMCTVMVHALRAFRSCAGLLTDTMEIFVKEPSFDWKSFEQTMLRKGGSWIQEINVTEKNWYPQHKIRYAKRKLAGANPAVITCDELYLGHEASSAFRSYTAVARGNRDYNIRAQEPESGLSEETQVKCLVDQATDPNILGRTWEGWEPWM
UniProt P31750: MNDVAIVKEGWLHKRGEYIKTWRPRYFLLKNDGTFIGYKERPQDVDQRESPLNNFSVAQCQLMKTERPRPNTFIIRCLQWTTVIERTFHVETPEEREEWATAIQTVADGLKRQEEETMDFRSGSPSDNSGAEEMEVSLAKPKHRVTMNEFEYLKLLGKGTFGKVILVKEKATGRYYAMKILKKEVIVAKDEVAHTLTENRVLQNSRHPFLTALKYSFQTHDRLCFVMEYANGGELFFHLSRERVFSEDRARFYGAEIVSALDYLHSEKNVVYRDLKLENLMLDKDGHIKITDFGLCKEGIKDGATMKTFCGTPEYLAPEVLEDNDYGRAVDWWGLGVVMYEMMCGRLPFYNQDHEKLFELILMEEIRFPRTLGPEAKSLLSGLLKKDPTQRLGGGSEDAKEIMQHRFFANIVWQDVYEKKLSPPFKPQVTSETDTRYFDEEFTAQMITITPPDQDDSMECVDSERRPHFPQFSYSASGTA
UniProt Q60823: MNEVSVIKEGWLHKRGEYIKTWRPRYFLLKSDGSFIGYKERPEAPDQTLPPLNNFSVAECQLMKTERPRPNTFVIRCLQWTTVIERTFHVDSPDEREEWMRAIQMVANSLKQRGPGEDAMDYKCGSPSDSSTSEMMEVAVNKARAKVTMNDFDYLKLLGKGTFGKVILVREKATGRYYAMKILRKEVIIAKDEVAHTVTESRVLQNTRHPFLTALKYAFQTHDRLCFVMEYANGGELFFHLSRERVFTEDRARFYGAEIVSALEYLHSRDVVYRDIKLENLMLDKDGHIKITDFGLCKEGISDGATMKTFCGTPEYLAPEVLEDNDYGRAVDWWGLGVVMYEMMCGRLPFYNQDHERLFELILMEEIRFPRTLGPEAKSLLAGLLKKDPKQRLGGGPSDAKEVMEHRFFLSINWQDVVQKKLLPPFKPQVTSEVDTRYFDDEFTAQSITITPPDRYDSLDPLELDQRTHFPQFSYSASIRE
UniProt P10085: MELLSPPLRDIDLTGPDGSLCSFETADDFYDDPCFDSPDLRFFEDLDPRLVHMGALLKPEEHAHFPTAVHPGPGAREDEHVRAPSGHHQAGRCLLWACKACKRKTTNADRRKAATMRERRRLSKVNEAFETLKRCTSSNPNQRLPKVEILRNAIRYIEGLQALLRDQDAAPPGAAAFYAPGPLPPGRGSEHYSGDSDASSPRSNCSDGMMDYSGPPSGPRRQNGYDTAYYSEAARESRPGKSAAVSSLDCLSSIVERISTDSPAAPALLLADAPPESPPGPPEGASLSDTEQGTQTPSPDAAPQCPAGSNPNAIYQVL

No constants are given. Whether binding was seen depends on the method and setting. In cells and extracts the contact can be indirect. Some binding calls cover weakened binding; strength is not graded here.

The target in experiment [1] is DNA-dependent protein kinase catalytic subunit (mouse (endogenous in C2C7)) (UniProt P97313). The experiment is described as follows: co-IP.
Experiment [2] concerns the target Akt1 (mouse (endogenous in C2C7)) (UniProt P31750). The experiment is described as follows: co-IP.

“Akt2 (from UniProt Q60823 1-481) (enzyme)”: the binding result in experiment [1] is “binds”.
As for MyoD (from UniProt P10085 1-318), the binding result in experiment [1] and in experiment [2] was “binds” each time.
